# Laboratory results taken from the supplement of paper PMC5949888.
# Most values lie at the floor of the assay. Slopes are relative: functional sequences can read slightly below zero.
# Tested on: Saccharomyces cerevisiae PS128 hsf1 delta, HSF1(1-493) fusion
# Test: growth estimate (transactivation domain function in HSF1 fusion, heat-shock survival) (a.u. (slope of normalised read count over time)); higher = stronger growth at 37°C, i.e. more transactivation activity
# Conditions: library: random library
row,Substance,growth estimate
1,VKYAPGSFREYHFIFLQTWR,< -0.25
2,VKYVVIRSRFPAT,< -0.25
3,VLADIARYRKRYLARVCHHM,< -0.25
4,VLANIDDRCWSSRCWWSYHP,< -0.25
5,VLAYKYMRLDEWHGNKQAQG,< -0.25
6,VLCALQWDDMGLLPQSGMEW,< -0.25
7,VLCWGTAKV,< -0.25
8,VLDISVYGIGTVMSLPAPIV,< -0.25
9,VLDYPETLSPSPITFFAAES,-0.25
10,VLELRWGTVL,< -0.25
11,VLESVFRHLHGLNRYTRPRV,< -0.25
12,VLEVSWNTWKIFGLSR,< -0.25
13,VLEYLWVGRAAVR,< -0.25
14,VLFFVLCRIFEEAVTGCATV,< -0.25
15,VLFS,< -0.25
16,VLGDSLRCMIRST,< -0.25
17,VLGIPPGMFFAATIILAACY,-0.246
18,VLGLMGVIQSI,< -0.25
19,VLGMA,< -0.25
20,VLGPAQRFMVLLDRFEHAPS,< -0.25
21,VLGPKVIWLGSTLFIREDMS,< -0.25
22,VLGQIVECCG,< -0.25
23,VLGSYLIHQRTRLTSITSTR,< -0.25
24,VLGYYES,< -0.253
25,VLHGGPQGGTASLGRPSGLL,< -0.25

row,Substance,growth estimate
1,VLHPTVGL,< -0.25
2,VLHRRIERSRYAL,< -0.25
3,VLIPSRVIEQNNGDVGSMAR,< -0.25
4,VLISFCDGSRVS,< -0.25
5,VLIVSLR,< -0.25
6,VLKRVEGTRTLIHRNALGSW,< -0.25
7,VLKTRQTMRIDNSFHCFPYS,< -0.25
8,VLKTWYLEFEVNRLTQHSPV,< -0.25
9,VLLCTLTCVHALRGPLPHQQ,< -0.25
10,VLLE,< -0.25
11,VLLKHI,< -0.25
12,VLLKKYGPVVCGIESPSAAF,< -0.25
13,VLLLIFDFIKTWV,< -0.25
14,VLLLTSCARNGYQCLDHSSG,< -0.25
15,VLLLVRVGEQGIVPEERTF,< -0.25
16,VLLS,-0.0823
17,VLLTA,< -0.25
18,VLLVERLRPIGW,< -0.25
19,VLMG,< -0.25
20,VLNSCSGEPRPATNAGIGYS,-0.245
21,VLPDLSNALQIPTSRPS,< -0.25
22,VLPKCAAGGYKSWHINSCGR,< -0.25
23,VLPLFRASVT,< -0.25
24,VLPRGHNTRLKGRIKRLAPV,< -0.25
25,VLPSTVQS,< -0.25

# Looked up above.
# VKYAPGSFREYHFIFLQTWR | growth estimate: < -0.25
# VLPDLSNALQIPTSRPS | growth estimate: < -0.25
# VLGDSLRCMIRST | growth estimate: < -0.25
# VLPSTVQS | growth estimate: < -0.25

# More entries follow:

row,Substance,growth estimate
1,VLPVLNDRDR,-0.243
2,VLQVVACFRERTQSLTALPS,< -0.25
3,VLRAVE,< -0.25
4,VLRFTLISLDSTGMVCEQRV,< -0.25
5,VLRGGRELAHWPSGSGGASV,< -0.25
6,VLRGQPLEMPFGMDLLFLHR,< -0.25
7,VLRHLE,< -0.25
8,VLRLGETLSNANWSGSHRTC,< -0.25
9,VLRPAKERAWWGKCRRTVL,< -0.25
10,VLRRQFEFLSRLN,< -0.25
11,VLRVREIAIP,< -0.25
12,VLSAIIHIK,< -0.25
13,VLSGLESTLLSWRSGCANMF,-0.0471
14,VLSRLRRALKVIWVSVRSLG,< -0.25
15,VLTGKSLEPTKTAEQALGT,< -0.25
16,VLTLRADQVGKVVKTRRVGL,< -0.25
17,VLTRLIDWKFDIAERLDSCF,< -0.25
18,VLTRND,< -0.25
19,VLTSFIKLVLCHHA,< -0.25
20,VLTSNHLGHCLFQSL,< -0.25
21,VLVG,< -0.25
22,VLVHIRFYVLGGTGASGLTN,< -0.25
23,VLVPLKGLQSGRLVQDEFHL,< -0.25
24,VLVVGENLAIREGTDP,< -0.25
25,VLVWVATEPVIRTFGEAVQS,< -0.25

row,Substance,growth estimate
1,VLY,< -0.25
2,VMALPLVTNWFLRPPRQAIR,< -0.25
3,VMAVHGLGAA,< -0.25
4,VMFR,< -0.25
5,VMG,< -0.25
6,VMGA,< -0.25
7,VMGIR,< -0.25
8,VMPVG,< -0.25
9,VMRFYRSS,< -0.25
10,VMVHLRLSHT,< -0.25
11,VNAVLSSVTL,< -0.25
12,VNEIICPR,< -0.25
13,VNFKSTHGEQYGESGTSVQC,< -0.25
14,VNGFCTMPLIVEPLTLMTKT,< -0.25
15,VNGREPLHR,< -0.25
16,VNGTWMNRAVKGVQINRLSS,< -0.25
17,VNGVETKDGSAGILSFKYPP,< -0.253
18,VNHETYE,< -0.25
19,VNI,< -0.25
20,VNKYGMHTSRQPIYTTVLTP,< -0.25
21,VNLHASSMRA,< -0.25
22,VNLLRNLSPSS,< -0.25
23,VNPVGPQDRSMDLGGSVCAR,< -0.25
24,VNRGLACSVGPFFETRRLGF,< -0.25
25,VNRQSVSHPPCKRMPCYAFR,< -0.25

row,Substance,growth estimate
1,VNSHCLTIWVSLIIFLRSQH,< -0.25
2,VNSYLWTFPVSFRPGSQVDG,< -0.25
3,VNTVLAGSRARPVIFSAVCE,< -0.25
4,VNWAT,< -0.25
5,VNYEEFYRRPYPSWSTRVCG,< -0.25
6,VPAERLARVPRPVFRKIHCT,< -0.25
7,VPCCG,< -0.25
8,VPCELLVLGSWVLVADIVLD,< -0.25
9,VPCPPEPWGYMLALRTLRTS,< -0.25
10,VPE,< -0.25
11,VPELKGFR,< -0.25
12,VPESSCIYFAR,< -0.25
13,VPFGYFNSATKALDWENSRT,< -0.25
14,VPGSRANFPFL,< -0.25
15,VPGVSLANRSDLHDSLSCIP,< -0.25
16,VPHSTLSRGLGSCLH,< -0.25
17,VPHVGNGNAYPIKSPKA,< -0.25
18,VPIMELQMSVVLDEMYA,< -0.25
19,VPKHGFVDRYYLIVKC,< -0.25
20,VPKHRVG,< -0.25
21,VPLDAPLVRR,< -0.25
22,VPNGSIDLSNCHNWLTRAGH,< -0.25
23,VPNILTGHWDLQPKITSC,< -0.25
24,VPNLVWSVTSMGQDGIVLAR,< -0.25
25,VPPLCPLVTFWQVHNSIRML,< -0.25

# Quoted at random: two entries already listed.
row,Substance,growth estimate
10,VLELRWGTVL,< -0.25
16,VLTLRADQVGKVVKTRRVGL,< -0.25

# A second format for part of the listing above:
row	Substance	growth estimate
2	VNSYLWTFPVSFRPGSQVDG	< -0.25
3	VNTVLAGSRARPVIFSAVCE	< -0.25
4	VNWAT	< -0.25
5	VNYEEFYRRPYPSWSTRVCG	< -0.25

# More records

row,Substance,growth estimate
1,VPPRRNVLAEV,< -0.25
2,VPQCPGL,< -0.25
3,VPQDECRRLTQGSARNGGMM,< -0.25
4,VPRDEMNWSVALMATVPMFV,< -0.25
5,VPRLRCPRFAIR,< -0.25
6,VPRRGRYRPRIVTGPSADVF,< -0.25
7,VPRSRA,< -0.25
8,VPRTDYGPPVVQFTVLFKAA,< -0.25
9,VPSRGMGTPEIVICVSEVCG,< -0.25
10,VPSTVQPV,< -0.25
11,VPSVCQASLLI,< -0.25
12,VPTASLEVPRRAGRN,< -0.25
13,VPTLDGDSRVRPGRVSLVGG,< -0.25
14,VPTLREGGRDAFDWLY,< -0.25
15,VPTVSRASGLYIFRRDLPGC,< -0.25
16,VPV,< -0.25
17,VPVLETSYGHIIRFA,< -0.25
18,VPWAARLVRIAQTHFWQIDA,< -0.25
19,VPWILAGSHRGAM,< -0.25
20,VPYKGRPREGCPFAMPSCRS,< -0.25
21,VPYR,< -0.25
22,VQAHNQNG,< -0.25
23,VQAQRCANREAHEWGDDRDL,< -0.25
24,VQARMPDLSRHKISSGLALG,< -0.25
25,VQCANGGPRVEGGDGGASYM,< -0.25

row,Substance,growth estimate
1,VQDEYHRTLQLYASSAL,< -0.25
2,VQDSQASRIENNERRHLQSY,< -0.25
3,VQETGSTSLGHAAGLLVTRN,< -0.25
4,VQETTCVCGRLEHI,< -0.25
5,VQGARLPVPLKLYSSVAEPL,< -0.25
6,VQGIICIS,< -0.25
7,VQGLRSPEDGFRGAAPPKAA,< -0.25
8,VQGSSARPC,< -0.25
9,VQGVGGGPLKPGSRFPVREG,< -0.25
10,VQIYLRRGRVRCDRRLSPPT,< -0.25
11,VQKYQARVIRRRPVHLQEGQ,< -0.25
12,VQLETNYY,< -0.25
13,VQMPLITAREELGQT,< -0.25
14,VQNRKRHL,< -0.25
15,VQPHAIERAGYVYAYGTITR,< -0.25
16,VQRLGDTLVNPGLLRYARTG,< -0.25
17,VQRVWGGGRSGSVTRPMSVA,0.249
18,VQSTILGRLFGLGAPSMGVG,< -0.25
19,VQVDTQRSSTILCGS,< -0.25
20,VRA,< -0.25
21,VRAA,< -0.25
22,VRACAF,< -0.25
23,VRATRV,< -0.25
24,VRCDTLL,< -0.25
25,VRCGVRRLCAVLSSLQCMRL,< -0.25

row,Substance,growth estimate
1,VRCSIDGRLLGTPI,< -0.25
2,VRDAFSRCLRTLAPVSRW,< -0.25
3,VRDALRGLAGTAGSDECASQ,< -0.25
4,VREVSPTHIDGE,< -0.25
5,VRG,< -0.25
6,VRGQHRMVGCSVNCVLVLNC,< -0.25
7,VRGRKAPVKPRCYWTNFLCE,-0.248
8,VRGSIHCQKQSNYEFVGPRW,< -0.25
9,VRGVQ,< -0.25
10,VRHSGIILAT,< -0.25
11,VRIARERTTSLNDMD,< -0.25
12,VRIL,< -0.25
13,VRIRRQE,< -0.25
14,VRIWADQTSRSGFMGHR,< -0.25
15,VRKPAQCG,< -0.25
16,VRKSASFLGPTMLRGPLTRE,< -0.25
17,VRL,< -0.25
18,VRLEARYVVPLRLV,< -0.25
19,VRLIG,-0.174
20,VRLKLLTIVGFSVTAHATFL,< -0.25
21,VRLKPTKYVDALDPPRYAPL,< -0.25
22,VRLKRQVDRGVHIPMGNKTS,< -0.25
23,VRLRGTRTTCGRA,< -0.25
24,VRLTGELADVPVTPVRIENR,< -0.25
25,VRLYEDVTGISKGTVAGVDG,< -0.25
